{
  "source": "PubChem BioAssay AID485314",
  "about": "(National Center for Advancing Translational Sciences (NCATS), 2010)",
  "note": "The whole screen tested about 340,000 compounds, of which about 4,500 (1.3%) were called active. Inconclusive results, whose numbers are uncertain, are shown with a selection of clear calls. Calls follow the shape of the dose curve; as a rule, active = well fitted inhibition curve with a large enough effect; inconclusive = small, poorly fitted or top-dose-only effect, or another doubt; inactive = no such curve, though single readings can be large or run the other way. Where the call is inconclusive, the potency comes from a doubtful curve fit. % is scaled to controls: 0 for no effect and ±100 for the full control effect; potency is read from the fitted curve at half-maximal effect.",
  "data": [
    {"molecular_target": "DNA polymerase beta (Homo sapiens) (UniProt P06746)", "assay": "qHTS Assay for Inhibitors of DNA Polymerase Beta", "conditions": "Pol beta primer extension/strand displacement, fluorescence kinetic; activity change, negative = inhibition: at 114 µM (top of the series)", "in_short": "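Enzyme-only controls used 10 nM Pol beta; buffer lacking enzyme served as negative control. Compound preincubated 15 min, then 50 nM substrate added; 0 and 10 min reads at room temperature.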", "values": [
      {"smiles": "Cc1cc(C)c(NC(=O)C(=O)NCC(c2cccnc2)N2CCN(Cc3ccccc3)CC2)c(C)c1", "note": "(stereo not given)", "activity change, negative = inhibition": "inactive: 8.18%"},
      {"smiles": "COc1ccc(S(=O)(=O)Nc2ccc(O)c3ccccc23)cc1", "activity change, negative = inhibition": "inactive: 7.58%"},
      {"smiles": "CCc1nnc(SCC(=O)Nc2ccc3c(c2)OCO3)o1", "Potency": "inconclusive: 39.8 µM [inhibitor, single point]"},
      {"smiles": "CCC(C(=O)Nc1ccc(C(=O)OC)cc1)n1nc(-c2ccc(C)c(C)c2)ccc1=O", "note": "(stereo not given)", "Potency": "inconclusive: 11.2 µM [inhibitor, partial curve]"},
      {"smiles": "COc1cc(OC)cc(C(=O)Nc2cc(-c3nc4cccnc4s3)ccc2C)c1", "activity change, negative = inhibition": "inactive: -5.09%"},
      {"smiles": "CC(C)OCCCn1c(-c2ccco2)nc2nc3ccccc3nc21", "Potency": "inconclusive: 0.112 µM [inhibitor, full curve, poor fit]"},
      {"smiles": "CN1CCN(c2nc(Nc3ccc(F)cc3)nc(Nc3ccc(F)cc3)n2)CC1", "activity change, negative = inhibition": "inconclusive: -43.3% [inhibitor]"},
      {"smiles": "COc1ccc(/C=N/NC(=O)c2ccc(OC)c(OC)c2)cc1COc1c(F)c(F)c(F)c(F)c1F", "Potency": "inconclusive: 20 µM [inhibitor, single point]"},
      {"smiles": "CCCCCCc1cc2cc(-c3nnc(-c4ccccc4O)o3)c(=O)oc2cc1O", "Potency": "inconclusive: 5.62 µM [inhibitor, full curve, poor fit]"},
      {"smiles": "O=C(CSc1ccccc1Cl)c1ccco1", "Potency": "inconclusive: 35.5 µM [inhibitor, full curve]"},
      {"smiles": "O=C1Nc2c(c(=O)[nH]c(=O)n2-c2ccc(F)cc2)C1(NS(=O)(=O)c1ccccc1)C(F)(F)F", "note": "(stereo not given)", "activity change, negative = inhibition": "inconclusive: -158% [inhibitor]"},
      {"smiles": "O=C(O)c1ccc(NC2=C(N3CCOCC3)C(=O)c3ccccc3C2=O)cc1", "Potency": "inconclusive: 1.41 µM [inhibitor, partial curve]"},
      {"smiles": "COc1ccc2c(c1)cc1n2CCN=C1N", "Potency": "inconclusive: 3.16 µM [inhibitor, full curve, poor fit]"},
      {"smiles": "O=C(O)c1cc(N=Nc2c(O)ccc3ccccc23)cc(C(=O)O)c1", "activity change, negative = inhibition": "inactive: -4.12%"},
      {"smiles": "COC(=O)CCCC1=CC2=CC(=O)C(C)(OC(=O)c3cccs3)C(=O)C2=CN1CCc1ccccn1", "note": "(stereo not given)", "activity change, negative = inhibition": "inactive: -1.9%"},
      {"smiles": "Cc1ccsc1CN(C(=O)COc1cccc(C)c1C)C1CCS(=O)(=O)C1", "note": "(stereo not given)", "activity change, negative = inhibition": "inactive: -2.56%"},
      {"smiles": "COc1ccc(/C=C/C(=O)O)cc1S(=O)(=O)NC1CCS(=O)(=O)C1", "note": "(stereo not given)", "Potency": "inconclusive: 15.8 µM [inhibitor, full curve, poor fit]"},
      {"smiles": "COC(=O)C1=C(O)/C(=C\\c2ccc(CNS(=O)(=O)c3ccc(Cl)cc3)o2)N=C1C", "Potency": "active: 25.1 µM"},
      {"smiles": "O=C(NCCOCCn1c(=O)oc2ccccc21)Nc1cccc(Cl)c1", "activity change, negative = inhibition": "inactive: 42.7%"},
      {"smiles": "CCN(CC)S(=O)(=O)c1cccc(C(=O)N/N=C/c2ccc([N+](=O)[O-])o2)c1", "Potency": "inconclusive: 44.7 µM [inhibitor, partial curve, poor fit]"},
      {"smiles": "Cc1ccc(S(=O)(=O)/N=C2/C=C(Sc3ncn[nH]3)C(=O)c3ccccc32)c(C)c1", "Potency": "inconclusive: 2.51 µM [inhibitor, full curve, poor fit]"},
      {"smiles": "Cn1cc(Br)c(C(=O)Nc2sc3c(c2C(N)=O)CCCC3)n1", "Potency": "inconclusive: 70.8 µM [inhibitor, single point]"},
      {"smiles": "COc1ccc2c(c1)O[C@H](c1ccc3c(c1)OCO3)[C@@H](O)C2=O", "activity change, negative = inhibition": "inactive: 7.24%"},
      {"smiles": "CCc1ccc(N2CSC3=C(C#N)C(c4cccs4)CC(=O)N3C2)cc1", "note": "(stereo not given)", "Potency": "inconclusive: 22.4 µM [inhibitor, full curve]"},
      {"smiles": "CN(C(=O)CSc1nnc(-c2ccncc2)n1-c1ccccc1)C1CCS(=O)(=O)C1", "note": "(stereo not given)", "activity change, negative = inhibition": "inactive: 9.9%"},
      {"smiles": "C=CCn1c(COc2ccc(F)cc2)nnc1SCC(=O)NC(=O)NCc1ccco1", "Potency": "active: 25.1 µM"},
      {"smiles": "Cc1ccc(-n2nc(C(=O)N(C)Cc3ccccc3)c3c4ccccc4n(C)c3c2=O)cc1", "activity change, negative = inhibition": "inactive: 35%"},
      {"smiles": "Cc1ccc(CCNC(=O)c2c[nH]c3ccc(S(=O)(=O)Nc4cccc(C(F)(F)F)c4)cc3c2=O)cc1", "Potency": "inconclusive: 50.1 µM [inhibitor, partial curve, poor fit]"},
      {"smiles": "O=C(/C=C/c1ccco1)N1CCN(C/C=C/c2ccccc2)CC1", "Potency": "inconclusive: 20 µM [inhibitor, single point]"},
      {"smiles": "Cc1c2c(=O)n(-c3nc4ccccc4s3)nc-2cc(O)n1Cc1ccccc1", "activity change, negative = inhibition": "inconclusive: -124% [inhibitor]"},
      {"smiles": "Cc1[nH]c(=O)nc(SCc2cccc(Cl)c2)c1C#N", "Potency": "active: 70.8 µM"},
      {"smiles": "Cc1ncc(CO)c(/C=N/NC(=O)c2cc(O)c(O)c(O)c2)c1O", "Potency": "active: 0.316 µM"},
      {"smiles": "O=C(O)c1ccc(COc2ccccc2[N+](=O)[O-])o1", "Potency": "inconclusive: 39.8 µM [inhibitor, single point]"},
      {"smiles": "CCc1ccc(NC(=O)CSc2nc(=O)n(Cc3ccncc3)c3c2CCC3)cc1", "activity change, negative = inhibition": "inactive: 17.8%"},
      {"smiles": "Cc1snc(S(=O)(=O)/C(C#N)=N/Nc2ccc(C(F)(F)F)cc2)c1C#N", "activity change, negative = inhibition": "inactive: -0.286%"},
      {"smiles": "CC(NS(=O)(=O)c1ccccc1)C(c1cccs1)N1CCN(c2ccccc2)CC1", "note": "(stereo not given)", "activity change, negative = inhibition": "inactive: -13.2%"},
      {"smiles": "CCOc1ccc(CCNC(=O)CS(=O)(=O)Cc2nc(-c3ccccc3F)oc2C)cc1", "Potency": "inconclusive: 0.0891 µM [inhibitor, full curve]"},
      {"smiles": "O=C(Nc1cnn(Cc2ccc(Cl)cc2Cl)c1)c1noc2c1CCc1ccccc1-2", "Potency": "inconclusive: 0.126 µM [inhibitor, full curve, poor fit]"},
      {"smiles": "COc1ccc(C(CC(=O)Nc2cc(OC)c(OC)c(OC)c2)N2Cc3ccccc3C2=O)cc1", "note": "(stereo not given)", "activity change, negative = inhibition": "inactive: -0.782%"},
      {"smiles": "CCOc1ccc(CCNC(=O)c2ccc3c(c2)N(Cc2ccccc2F)C(=O)c2ccccc2S3=O)cc1OCC", "note": "(stereo not given)", "activity change, negative = inhibition": "inactive: -17.3%"},
      {"smiles": "COC(=O)C1CCN(C(=O)NC2CCCCC2)CC1", "Potency": "inconclusive: 89.1 µM [inhibitor, single point]"},
      {"smiles": "Cc1ccccc1S(=O)(=O)NC1OC(=O)C(Oc2ccccc2)=C1Br", "note": "(stereo not given)", "Potency": "inconclusive: 4.47 µM [inhibitor, partial curve]"},
      {"smiles": "c1ccc([C@H]2CC3C[C@@H](c4ccccc4)N2O3)cc1", "Potency": "inconclusive: 39.8 µM [inhibitor, single point]"},
      {"smiles": "COc1ccc(C(=O)O)c(OC)n1", "Potency": "inconclusive: 100 µM [inhibitor, single point]"},
      {"smiles": "CCN(CC)c1ccc(S(=O)(=O)N2CCOCC2)cc1NC(=O)CNCc1ccccc1", "Potency": "inconclusive: 5.01 µM [inhibitor, partial curve, poor fit]"},
      {"smiles": "CC(C)Cn1c(CN2CCN(c3cccc(Cl)c3)CC2)nc2c1c(=O)[nH]c(=O)n2C", "activity change, negative = inhibition": "inactive: 12.6%"},
      {"smiles": "COc1cc(-c2cc3nc(C)c(C)c(=O)n3[nH]2)cc(OC)c1OC", "Potency": "inconclusive: 50.1 µM [inhibitor, partial curve]"},
      {"smiles": "COc1ccccc1CC(=O)NNC(=O)c1ccco1", "Potency": "inconclusive: 89.1 µM [inhibitor, single point]"},
      {"smiles": "CCCCNC(=S)NNC(=O)c1csc(C)c1C", "Potency": "inconclusive: 22.4 µM [inhibitor, single point]"},
      {"smiles": "CC(C)(C)CC(=O)Nc1nnc(CCc2ccccc2)s1", "Potency": "inconclusive: 0.891 µM [inhibitor, partial curve, poor fit]"},
      {"smiles": "CCCCCCCCCCOC(=O)Cn1c(COc2ccccc2C)[n+](C)c2ccccc21", "Potency": "inconclusive: 70.8 µM [inhibitor, single point]"},
      {"smiles": "O=C(CCc1nc2ccccc2s1)NC1CCOC1=O", "note": "(stereo not given)", "Potency": "inconclusive: 12.6 µM [inhibitor, full curve]"},
      {"smiles": "S=c1[nH]nc(-c2ccco2)n1/N=C/C=C/c1ccccc1", "activity change, negative = inhibition": "inactive: 12.7%"},
      {"smiles": "COc1ccc(NC(=O)CN(CC(=O)Nc2ccc(OC)cc2)C(C)(C)CO)cc1", "activity change, negative = inhibition": "inactive: -1.95%"},
      {"smiles": "O=C(COC(=O)CCNS(=O)(=O)c1ccc(Cl)cc1)NCc1ccco1", "activity change, negative = inhibition": "inactive: -5.45%"},
      {"smiles": "Cc1nc(-c2ccccn2)nc(SCC(=O)c2ccc(F)cc2)c1Cl", "activity change, negative = inhibition": "inconclusive: -33% [inhibitor]"},
      {"smiles": "Cc1cc(C2=NNC(=NCCc3ccccc3)SC2)c(C)n1-c1c(C)n(C)n(-c2ccccc2)c1=O", "activity change, negative = inhibition": "inconclusive: -30.7% [inhibitor]"},
      {"smiles": "CCC(C(=O)O)N1C(=O)/C(=C/C(C)=C/c2ccccc2)SC1=S", "note": "(stereo not given)", "activity change, negative = inhibition": "inactive: -11.4%"},
      {"smiles": "CCOc1ccccc1C1C(C(=O)Nc2ccccc2)=C(C)Nc2nc(-c3ccccc3)nn21", "note": "(stereo not given)", "Potency": "inconclusive: 0.447 µM [inhibitor, partial curve]"},
      {"smiles": "C[C@@H](C(=O)N1CCN(Cc2ccc3c(c2)OCO3)CC1)n1nnc2ccccc2c1=O", "Potency": "inconclusive: 39.8 µM [inhibitor, full curve]"},
      {"smiles": "CC(C)NC(=O)CSc1cn(CC(=O)N2CCCCCC2)c2ccccc12", "Potency": "inconclusive: 0.141 µM [inhibitor, full curve, poor fit]"},
      {"smiles": "COc1ccc(N2CCN(C(=O)c3cnc(N4CCOCC4)c4ccccc34)CC2)cc1", "activity change, negative = inhibition": "inactive: 5.79%"},
      {"smiles": "Cc1cccc(N2CN=c3s/c(=C\\c4ccccn4)c(=O)n3C2)c1", "activity change, negative = inhibition": "inconclusive: -31.6% [inhibitor]"},
      {"smiles": "CCc1ccc(S(=O)(=O)Nc2c(C)nc3nc[nH]n3c2=O)cc1", "activity change, negative = inhibition": "inactive: 30.2%"},
      {"smiles": "CCCNS(=O)(=O)c1ccc(OCC(=O)NCc2ccco2)cc1", "Potency": "inconclusive: 35.5 µM [inhibitor, partial curve]"},
      {"smiles": "CCCCN(CC)C(=O)c1ccc2c(c1)NC(=O)c1ccccc1S2", "activity change, negative = inhibition": "inactive: 24%"},
      {"smiles": "COc1cc(C(=O)N2CCN(C)CC2)cc(OC)c1OC", "Potency": "inconclusive: 8.91 µM [inhibitor, full curve, poor fit]"},
      {"smiles": "CN1CCN(S(=O)(=O)c2ccccc2)CC1", "Potency": "inconclusive: 89.1 µM [inhibitor, single point]"},
      {"smiles": "Cc1ccc(Oc2ccc(N)cc2)cc1", "Potency": "inconclusive: 2.51 µM [inhibitor, partial curve, poor fit]"},
      {"smiles": "CCCc1ccc(OCc2ccc(C(=O)Nc3ccccc3C(=O)OC)o2)cc1", "Potency": "inconclusive: 39.8 µM [inhibitor, single point]"}
    ]}
  ]
}
